PubChem BioAssay AID270 (DTP/NCI, 2004)
The list does not hold the whole screen: it gathers tests that were run many times, whatever their T/C, doses with no T/C, and many T/C values between a quarter and a half above the control. Other doses and runs of a compound stand elsewhere. T/C: endpoint of the treated group in % of that of the vehicle group. Schedule codes are those of the source, read here as Q, the interval in days (D) or hours (H), X, the number of doses. Some T/C values carry the count of animals alive at the toxicity check (mostly the fifth day); without a count, all were alive then. Some entries give survivors of the animals treated and no T/C: the source files T/C as zero there, which appears to mark a toxic dose or a test without result, not a measured value. Some survivor counts are full or nearly so, which does not show that the dose was tolerated: the source hardly ever lists a survival T/C far under the control, and the zero likely stands for such cases as well. Survivors were counted at the toxicity check, usually on the fifth day, unless a day is given; later deaths do not show. Some entries hold several experiments; the values are given in rising order. For survival time, the PubChem record calls one and a half times the control and up active, and a quarter to a half above the control has no call in these data; cut-offs in other NCI protocols can differ.

System: BDF1 mice, s.c. Lewis lung carcinoma, T/C %
Test: NCI In Vivo Anticancer Drug Screen. Data for tumor model Lewis Lung Carcinoma (subcutaneous) in B6D2F1 (BDF1) mice
Summary of the method: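 Antitumor effect in vivo is scored from survival or tumor burden, reported as treated relative to vehicle controls.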

[1] = T/C endpoint: median survival time, dose: 12.5 mg/kg/injection, schedule: Q01DX009 (ip), vehicle: olive oil, sesame oil, peanut oil, higher T/C = longer survival
[2] = T/C endpoint: median survival time, dose: 100.0 mg/kg/injection, schedule: Q01DX009 (ip), vehicle: olive oil, sesame oil, peanut oil, higher T/C = longer survival
[3] = T/C endpoint: median survival time, dose: 400.0 mg/kg/injection, schedule: Q01DX009 (ip), vehicle: olive oil, sesame oil, peanut oil, higher T/C = longer survival
[4] = T/C endpoint: mean tumor weight, dose: 60.0 mg/kg/injection, schedule: Q01DX011 (ip), vehicle: carboxymethylcellulose (CMC), higher T/C = larger tumour
[5] = T/C endpoint: median survival time, dose: 50.0 mg/kg/injection, schedule: Q01DX009 (ip), vehicle: Klucel (hydroxypropylcellulose) (HPC), higher T/C = longer survival
[6] = T/C endpoint: median survival time, dose: 100.0 mg/kg/injection, schedule: Q01DX009 (ip), vehicle: Klucel (hydroxypropylcellulose) (HPC), higher T/C = longer survival
[7] = T/C endpoint: median survival time, dose: 12.5 mg/kg/injection, schedule: Q01DX009 (ip), vehicle: Klucel (hydroxypropylcellulose) (HPC), higher T/C = longer survival
[8] = T/C endpoint: median survival time, dose: 25.0 mg/kg/injection, schedule: Q01DX009 (ip), vehicle: Klucel (hydroxypropylcellulose) (HPC), higher T/C = longer survival

c1ccc(N/N=C2/CCN3CCCc4cccc2c43)cc1
survivor count (T/C endpoint: median survival time, dose: 12.5 mg/kg/injection, schedule: Q01DX009 (ip), vehicle: DMSO, higher T/C = longer survival): 4 of 10 | survivor count (T/C endpoint: median survival time, dose: 25.0 mg/kg/injection, schedule: Q01DX009 (ip), vehicle: DMSO, higher T/C = longer survival): 7 of 10 | survivor count (T/C endpoint: median survival time, dose: 50.0 mg/kg/injection, schedule: Q01DX009 (ip), vehicle: DMSO, higher T/C = longer survival): 3 of 10 | survivor count (T/C endpoint: median survival time, dose: 100.0 mg/kg/injection, schedule: Q01DX009 (ip), vehicle: DMSO, higher T/C = longer survival): 0 of 10 | survivor count (T/C endpoint: median survival time, dose: 100.0 mg/kg/injection, schedule: Q04DX003 (ip), vehicle: DMSO, higher T/C = longer survival): 10 of 10

O=NN(CCCl)C(=O)NC1CCC(C(=O)O)CC1 (stereo not drawn)
survivor count (T/C endpoint: median survival time, dose: 5.0 mg/kg/injection, schedule: Q01DX001 (ip), vehicle: saline with Tween-80, higher T/C = longer survival): 10 of 10 | T/C (T/C endpoint: median survival time, dose: 18.0 mg/kg/injection, schedule: Q01DX001 (ip), vehicle: saline with Tween-80, higher T/C = longer survival): 137 % of control | T/C (T/C endpoint: median survival time, dose: 20.0 mg/kg/injection, schedule: Q01DX001 (ip), vehicle: saline with Tween-80, higher T/C = longer survival): 125 % of control [9 of 10 alive on day 11] | T/C (T/C endpoint: median survival time, dose: 30.0 mg/kg/injection, schedule: Q01DX001 (ip), vehicle: saline with Tween-80, higher T/C = longer survival): 129 and 133 % of control | T/C (T/C endpoint: median survival time, dose: 45.0 mg/kg/injection, schedule: Q01DX001 (ip), vehicle: saline with Tween-80, higher T/C = longer survival): 131 % of control

O=NN(CCCl)C(=O)NC(CCC(=O)O)C(=O)O (stereo not drawn)
survivor count (T/C endpoint: median survival time, dose: 121.0 mg/kg/injection, schedule: Q01DX001 (ip), vehicle: saline with Tween-80, higher T/C = longer survival): 10 of 10 on day 11 | survivor count (T/C endpoint: median survival time, dose: 275.0 mg/kg/injection, schedule: Q01DX001 (ip), vehicle: saline with Tween-80, higher T/C = longer survival): 10 of 10 on day 11 | survivor count (T/C endpoint: median survival time, dose: 412.0 mg/kg/injection, schedule: Q01DX001 (ip), vehicle: saline with Tween-80, higher T/C = longer survival): 9 of 10 on day 11 | survivor count (T/C endpoint: median survival time, dose: 508.0 mg/kg/injection, schedule: Q01DX001 (ip), vehicle: saline with Tween-80, higher T/C = longer survival): 7 of 10 on day 11

Cc1ccc2nc(-c3ccc(N=Cc4ccccc4O)cc3)sc2c1
survivor count [1]: 10 of 10 | survivor count (T/C endpoint: median survival time, dose: 25.0 mg/kg/injection, schedule: Q01DX009 (ip), vehicle: olive oil, sesame oil, peanut oil, higher T/C = longer survival): 9 of 10 | survivor count (T/C endpoint: median survival time, dose: 50.0 mg/kg/injection, schedule: Q01DX009 (ip), vehicle: olive oil, sesame oil, peanut oil, higher T/C = longer survival): 10 of 10 | survivor count [2]: 10 of 10 | survivor count [3]: 10 of 10

COC1OC(CNC(=O)N(C)N=O)C(O)C(O)C1O (stereo not drawn)
survivor count (T/C endpoint: median survival time, dose: 400.0 mg/kg/injection, schedule: Q01DX009 (ip), vehicle: saline, higher T/C = longer survival): 10 of 10

COc1ccc(-c2c(CC(=O)O)c3cc(OC)ccc3n2Cc2ccc(Cl)cc2)cc1
T/C (T/C endpoint: mean tumor weight, dose: 150.0 mg/kg/injection, schedule: Q01DX011 (ip), vehicle: other, evaluated on day 12, higher T/C = larger tumour): 130 % of control | T/C (T/C endpoint: mean tumor weight, dose: 500.0 mg/kg/injection, schedule: Q01DX011 (ip), vehicle: other, evaluated on day 12, higher T/C = larger tumour): 140 % of control

Fc1ccc(NC(=S)Nc2cc(Cl)cc(Cl)c2)cc1
survivor count (T/C endpoint: mean tumor weight, dose: 30.0 mg/kg/injection, schedule: Q01DX011 (ip), vehicle: carboxymethylcellulose (CMC), higher T/C = larger tumour): 3 of 6 | survivor count [4]: 2 of 6

CN[C@@H](C)[C@@H](O)c1ccccc1
T/C (T/C endpoint: mean tumor weight, dose: 50.0 mg/kg/injection, schedule: Q01DX011 (ip), vehicle: carboxymethylcellulose (CMC), evaluated on day 12, higher T/C = larger tumour): 136 % of control

NC(=S)c1cn(C2OC(CO)C(O)C2O)c2ncnc(N)c12 (stereo not drawn)
survivor count (T/C endpoint: median survival time, dose: 1.25 mg/kg/injection, schedule: Q01DX009 (ip), vehicle: saline with Tween-80, higher T/C = longer survival): 10 of 10 | survivor count (T/C endpoint: median survival time, dose: 10.0 mg/kg/injection, schedule: Q01DX009 (ip), vehicle: saline with Tween-80, higher T/C = longer survival): 5 of 10

COC1C(O)CC(OC2CC(OC3CC(O[C@@H]4C(=O)c5c(cc6cc(OC7CC(OC8CC(O)C(O)C(C)O8)C(O)C(C)O7)c(C)c(O)c6c5O)C[C@H]4[C@H](OC)C(=O)[C@@H](O)[C@@H](C)O)OC(C)C3O)OC(C)C2O)OC1C (stereo partly drawn)
T/C (T/C endpoint: median survival time, dose: 300.0 micrograms/kg/injection, schedule: Q01DX009 (ip), vehicle: water, higher T/C = longer survival): 128 % of control [9 of 10 alive]

c1ccc([B-]2([C+]3CCCCC3)N3CCCCC3C3CCCCN32)cc1 (stereo not drawn)
survivor count [5]: 5 of 10 | survivor count [6]: 0 of 10

CC(=O)C1=C(O)C2(C)c3c(O)c(C)c(O)c(C(C)=O)c3OC2(Sc2ccccc2)CC1=O (stereo not drawn)
T/C (T/C endpoint: median survival time, dose: 12.5 mg/kg/injection, schedule: Q01DX009 (ip), vehicle: gum acacia, higher T/C = longer survival): 142 % of control

O=C(NP(=O)(N1CC1)N1CC1)c1cc(I)ccc1I
survivor count (T/C endpoint: median survival time, dose: 128.0 mg/kg/injection, schedule: Q02DX009 (ip), vehicle: saline with Tween-80, higher T/C = longer survival): 9 of 10 | survivor count (T/C endpoint: median survival time, dose: 256.0 mg/kg/injection, schedule: Q02DX009 (ip), vehicle: saline with Tween-80, higher T/C = longer survival): 10 of 10 | survivor count (T/C endpoint: median survival time, dose: 512.0 mg/kg/injection, schedule: Q02DX009 (ip), vehicle: saline with Tween-80, higher T/C = longer survival): 10 of 10

Nc1ccc2ccccc2c1N=Nc1ccccc1
survivor count (T/C endpoint: mean tumor weight, dose: 750.0 mg/kg/injection, schedule: Q01DX011 (ip), vehicle: other, higher T/C = larger tumour): 2 of 6 | survivor count (T/C endpoint: mean tumor weight, dose: 1000.0 mg/kg/injection, schedule: Q01DX011 (ip), vehicle: other, higher T/C = larger tumour): 0 of 6

Oc1ccc(O)c(/C=N/NC(=S)NC2CC3CC2C2C=CCC32)c1 (stereo not drawn)
survivor count [1]: 10 of 10 | survivor count [2]: 9 of 10 | survivor count (T/C endpoint: median survival time, dose: 200.0 mg/kg/injection, schedule: Q01DX009 (ip), vehicle: olive oil, sesame oil, peanut oil, higher T/C = longer survival): 10 of 10 | survivor count [3]: 3 of 10

c1ccc2cc3c(cc2c1)Cn1c-3nc2ccccc21
survivor count (T/C endpoint: mean tumor weight, dose: 80.0 mg/kg/injection, schedule: Q01DX011 (ip), vehicle: carboxymethylcellulose (CMC), higher T/C = larger tumour): 2 of 6 | survivor count (T/C endpoint: mean tumor weight, dose: 120.0 mg/kg/injection, schedule: Q01DX011 (ip), vehicle: carboxymethylcellulose (CMC), higher T/C = larger tumour): 1 of 6 | survivor count (T/C endpoint: mean tumor weight, dose: 180.0 mg/kg/injection, schedule: Q01DX011 (ip), vehicle: carboxymethylcellulose (CMC), higher T/C = larger tumour): 1 of 6 and 3 of 6 | survivor count (T/C endpoint: mean tumor weight, dose: 265.0 mg/kg/injection, schedule: Q01DX011 (ip), vehicle: carboxymethylcellulose (CMC), higher T/C = larger tumour): 3 of 7 | survivor count (T/C endpoint: mean tumor weight, dose: 400.0 mg/kg/injection, schedule: Q01DX011 (ip), vehicle: carboxymethylcellulose (CMC), higher T/C = larger tumour): 1 of 7 | survivor count (T/C endpoint: mean tumor weight, dose: 600.0 mg/kg/injection, schedule: Q01DX011 (ip), vehicle: carboxymethylcellulose (CMC), higher T/C = larger tumour): 0 of 7

C[C@]12CC[C@H]3[C@@H](CC[C@]4(O)C[C@@H](O)CC[C@]34/C=N/O)[C@@]1(O)CC[C@@H]2C1=COC(=O)C1
T/C (T/C endpoint: mean tumor weight, dose: 7.5 mg/kg/injection, schedule: Q01DX011 (ip), vehicle: carboxymethylcellulose (CMC), evaluated on day 12, higher T/C = larger tumour): 141 % of control [4 of 6 alive] | survivor count [4]: 3 of 6

CCCCOP(=O)(OCCCC)c1ccccc1
T/C (T/C endpoint: mean tumor weight, dose: 155.0 mg/kg/injection, schedule: Q01DX011 (ip), vehicle: other, evaluated on day 12, higher T/C = larger tumour): 147 % of control | T/C (T/C endpoint: mean tumor weight, dose: 350.0 mg/kg/injection, schedule: Q01DX011 (ip), vehicle: other, evaluated on day 12, higher T/C = larger tumour): 126 % of control

CC(=O)[O][Hg][c]1c(C)c(C)c(C)c(C)c1C
survivor count (T/C endpoint: median survival time, dose: 1.5 mg/kg/injection, schedule: Q01DX009 (ip), vehicle: Klucel (hydroxypropylcellulose) (HPC), higher T/C = longer survival): 10 of 10 | survivor count (T/C endpoint: median survival time, dose: 3.0 mg/kg/injection, schedule: Q01DX009 (ip), vehicle: Klucel (hydroxypropylcellulose) (HPC), higher T/C = longer survival): 10 of 10 | survivor count [7]: 8 of 10 | survivor count [8]: 5 of 10

NC(=NCc1ccccc1)c1ccc(N=C(N)c2ccc(C(N)=Nc3ccc(C(N)=NCc4ccccc4)cc3)cc2)cc1
survivor count (T/C endpoint: median survival time, dose: 20.0 mg/kg/injection, schedule: Q01DX009 (ip), vehicle: saline, higher T/C = longer survival): 10 of 10

NC1=NC(=S)C2N=C(N=Nc3ccc(C(=O)NC(CCC(=O)O)C(=O)O)cc3)N=C2N1 (stereo not drawn)
survivor count (T/C endpoint: median survival time, dose: 1.56 mg/kg/injection, schedule: Q01DX009 (ip), vehicle: Klucel (hydroxypropylcellulose) (HPC), higher T/C = longer survival): 10 of 10 | survivor count (T/C endpoint: median survival time, dose: 3.12 mg/kg/injection, schedule: Q01DX009 (ip), vehicle: Klucel (hydroxypropylcellulose) (HPC), higher T/C = longer survival): 10 of 10 | survivor count (T/C endpoint: median survival time, dose: 6.25 mg/kg/injection, schedule: Q01DX009 (ip), vehicle: Klucel (hydroxypropylcellulose) (HPC), higher T/C = longer survival): 10 of 10 | survivor count [7]: 10 of 10 | survivor count [8]: 10 of 10 | survivor count [5]: 9 of 10 | survivor count [6]: 5 of 10

CCCCCOC(CN)C(Cl)(Cl)Cl (stereo not drawn)
survivor count (T/C endpoint: median survival time, dose: 50.0 mg/kg/injection, schedule: Q01DX009 (ip), vehicle: saline, higher T/C = longer survival): 10 of 10
